No constants are given. Whether binding was seen depends on the method and setting. Binding seen in cells or lysates may run through a third protein. Some binding calls cover weakened binding; strength is not graded here.
Target: Kelch-like ECH-associated protein 1 (mouse (endogenous in HL-1)) (UniProt Q9Z2X8)
Test: co-IP; HL-1 cells with or without LPS (10 ug/ml); overnight with 1 mg of cell extract in 400 uL lysis buffer, 2.5 mM DTT, 30 uL glutathione agarose beads and 5 ug antibody; which protein was precipitated not given

Amino acid sequences for entries named in this document (tags omitted).
UniProt Q9Z2X8: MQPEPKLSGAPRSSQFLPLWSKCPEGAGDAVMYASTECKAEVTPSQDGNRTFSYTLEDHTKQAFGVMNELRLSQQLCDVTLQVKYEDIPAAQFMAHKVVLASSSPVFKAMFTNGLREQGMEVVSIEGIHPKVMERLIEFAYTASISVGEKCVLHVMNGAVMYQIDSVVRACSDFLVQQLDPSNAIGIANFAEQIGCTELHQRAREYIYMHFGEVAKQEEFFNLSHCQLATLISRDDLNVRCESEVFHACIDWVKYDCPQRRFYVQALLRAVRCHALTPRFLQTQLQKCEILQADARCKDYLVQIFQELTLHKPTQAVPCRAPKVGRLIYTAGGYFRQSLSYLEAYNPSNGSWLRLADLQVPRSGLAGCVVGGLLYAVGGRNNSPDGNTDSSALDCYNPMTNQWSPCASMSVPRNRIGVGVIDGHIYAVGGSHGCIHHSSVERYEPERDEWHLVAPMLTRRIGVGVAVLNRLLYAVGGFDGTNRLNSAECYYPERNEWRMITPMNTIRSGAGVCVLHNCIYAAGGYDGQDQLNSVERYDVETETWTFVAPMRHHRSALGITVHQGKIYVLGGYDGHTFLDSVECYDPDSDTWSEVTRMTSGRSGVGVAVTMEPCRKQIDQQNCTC

B1: Serine/threonine kinase 3 (enzyme, UniProt Q9JI10 1-497)
chain: MEQPPASKSKLKKLSEDSLTKQPEEVFDVLEKLGEGSYGSVFKAIHKESGQVVAIKQVPVESDLQEIIKEISIMQQCDSPYVVKYYGSYFKNTDLWIVMEYCGAGSVSDIIRLRNKTLTEDEIATILKSTLKGLEYLHFMRKIHRDIKAGNILLNTEGHAKLADFGVAGQLTDTMAKRNTVIGTPFWMAPEVIQEIGYNCVADIWSLGITSIEMAEGKPPYADIHPMRAIFMIPTNPPPTFRKPELWSDDFTDFVKKCLVKSPEQRATATQLLQHPFIKNAKPVSILRDLIAEAMEIKAKRHEEQQRELEEEEENSDEDELDSHTMVKTSSESVGTMRATSTMSEGAQTMIEHNSTMLESDLGTMVINSEEEEEEEEEEEEDGTMKRNATSPQVQRPSFMDYFDKQDFKNKSHENCDQSMREPGPMSNSVFPDNWRVPQDGDFDFLKNLSLEELQMRLKALDPMMEREIEELHQRYSAKRQPILDAMDAKKRRQQNF
  binding: binds

Source: article PMC10086747
